Among the data in article PMC10912509 are binding values, retold here.

By UniProt entry, the sequences of proteins in these tests, tags left out.
UniProt O95782: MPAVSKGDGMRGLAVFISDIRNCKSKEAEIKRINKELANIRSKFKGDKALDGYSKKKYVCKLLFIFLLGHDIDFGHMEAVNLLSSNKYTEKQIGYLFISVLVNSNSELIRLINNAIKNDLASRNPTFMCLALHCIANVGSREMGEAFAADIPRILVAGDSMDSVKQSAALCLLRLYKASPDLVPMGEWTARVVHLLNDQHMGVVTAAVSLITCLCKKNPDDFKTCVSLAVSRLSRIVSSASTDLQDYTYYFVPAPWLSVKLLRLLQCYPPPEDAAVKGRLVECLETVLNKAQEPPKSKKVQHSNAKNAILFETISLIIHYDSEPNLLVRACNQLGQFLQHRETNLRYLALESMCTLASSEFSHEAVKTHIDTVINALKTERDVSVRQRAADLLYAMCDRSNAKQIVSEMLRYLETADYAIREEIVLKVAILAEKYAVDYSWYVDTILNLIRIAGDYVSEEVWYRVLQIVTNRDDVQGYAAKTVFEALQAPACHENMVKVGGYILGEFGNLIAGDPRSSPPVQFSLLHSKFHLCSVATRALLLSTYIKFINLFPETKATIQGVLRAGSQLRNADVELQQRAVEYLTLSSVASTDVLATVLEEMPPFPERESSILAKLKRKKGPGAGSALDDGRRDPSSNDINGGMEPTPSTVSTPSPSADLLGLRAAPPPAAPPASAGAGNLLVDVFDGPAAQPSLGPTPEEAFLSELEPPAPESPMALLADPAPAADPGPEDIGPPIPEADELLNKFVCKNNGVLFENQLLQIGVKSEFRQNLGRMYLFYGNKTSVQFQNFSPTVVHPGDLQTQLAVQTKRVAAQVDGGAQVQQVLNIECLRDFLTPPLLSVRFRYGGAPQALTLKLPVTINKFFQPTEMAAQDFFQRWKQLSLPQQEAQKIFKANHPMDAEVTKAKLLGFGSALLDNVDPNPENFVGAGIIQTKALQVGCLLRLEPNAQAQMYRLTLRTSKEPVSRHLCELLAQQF
UniProt Q14258: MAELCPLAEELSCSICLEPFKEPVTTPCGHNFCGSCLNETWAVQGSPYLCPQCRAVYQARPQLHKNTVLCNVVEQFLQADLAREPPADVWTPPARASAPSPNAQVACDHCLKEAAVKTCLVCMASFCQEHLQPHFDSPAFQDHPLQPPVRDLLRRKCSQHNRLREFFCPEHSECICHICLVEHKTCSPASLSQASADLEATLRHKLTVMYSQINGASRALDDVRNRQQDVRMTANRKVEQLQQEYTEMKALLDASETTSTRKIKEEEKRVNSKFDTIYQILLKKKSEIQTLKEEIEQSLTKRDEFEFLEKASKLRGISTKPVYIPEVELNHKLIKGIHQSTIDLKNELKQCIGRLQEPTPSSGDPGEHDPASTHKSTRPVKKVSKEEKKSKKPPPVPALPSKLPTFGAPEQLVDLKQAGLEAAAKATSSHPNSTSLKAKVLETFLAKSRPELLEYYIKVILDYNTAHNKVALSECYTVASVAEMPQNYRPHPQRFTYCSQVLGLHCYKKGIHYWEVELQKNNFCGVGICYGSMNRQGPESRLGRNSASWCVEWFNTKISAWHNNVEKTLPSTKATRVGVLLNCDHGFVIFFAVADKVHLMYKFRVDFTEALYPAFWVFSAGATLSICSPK

The assay addresses T1, Flag-tagged ITPKB (inositol 1,4,5-triphosphate (IP3) kinase B), wild type (UniProt P27987).
T1 sequence: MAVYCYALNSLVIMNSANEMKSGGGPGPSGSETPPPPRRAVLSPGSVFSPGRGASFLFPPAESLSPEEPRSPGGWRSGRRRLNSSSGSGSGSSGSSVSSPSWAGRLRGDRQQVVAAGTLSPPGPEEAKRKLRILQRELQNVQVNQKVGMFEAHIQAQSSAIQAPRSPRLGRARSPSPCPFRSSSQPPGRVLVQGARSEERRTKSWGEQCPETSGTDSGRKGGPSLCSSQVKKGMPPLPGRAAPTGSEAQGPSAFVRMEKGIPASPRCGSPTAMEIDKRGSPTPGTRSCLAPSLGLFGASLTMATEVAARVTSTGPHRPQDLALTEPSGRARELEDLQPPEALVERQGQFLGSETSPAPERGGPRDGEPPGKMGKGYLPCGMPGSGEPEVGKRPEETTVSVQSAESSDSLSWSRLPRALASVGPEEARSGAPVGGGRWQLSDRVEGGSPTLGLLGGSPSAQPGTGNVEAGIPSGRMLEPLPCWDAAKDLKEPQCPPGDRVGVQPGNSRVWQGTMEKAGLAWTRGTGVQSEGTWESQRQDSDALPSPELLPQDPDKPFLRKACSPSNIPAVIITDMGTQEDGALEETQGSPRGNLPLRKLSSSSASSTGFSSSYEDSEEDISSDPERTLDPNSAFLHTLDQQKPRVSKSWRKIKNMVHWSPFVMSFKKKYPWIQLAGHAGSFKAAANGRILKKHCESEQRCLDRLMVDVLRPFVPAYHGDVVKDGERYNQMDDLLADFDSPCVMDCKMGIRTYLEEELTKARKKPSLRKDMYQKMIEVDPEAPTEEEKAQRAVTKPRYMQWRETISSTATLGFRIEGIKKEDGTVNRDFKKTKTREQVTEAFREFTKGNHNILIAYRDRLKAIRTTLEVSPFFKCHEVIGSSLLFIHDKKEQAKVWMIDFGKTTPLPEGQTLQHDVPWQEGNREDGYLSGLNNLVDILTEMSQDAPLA
The assay is described as follows: affinity purification with mass spectrometry; coimmunoprecipitation and mass spectrometry of ITPKB complexes from HEK293T and T98G-R cells overexpressing Flag-tagged ITPKB.

Results are given in words; binding and its absence hold for the method and conditions named. Binding seen in cells or lysates may run through a third protein. A yes stands for co-enrichment or nearness to the bait. Other partners may have been found. Where a sequence is shown, tags or fusion partners need not be part of it.

Take AP2A1 (from UniProt O95782 1-977): the binding entry is listed as “binds”.

Take “Trim25, endogenous (from UniProt Q14258 1-630) (enzyme)”: the binding entry is “binds”.
